T/C and survivor count data for 14 molecules are collected here from PubChem BioAssay AID248 (DTP/NCI, 2004).

The subject of the assay is L1210 leukemia ip in BDF1 mice, survival T/C. The assay is described as follows: NCI In Vivo Anticancer Drug Screen. Data for tumor model L1210 Leukemia (intraperitoneal) in B6D2F1 (BDF1) mice. As to conditions: T/C endpoint: mean survival time, higher T/C = longer survival.
Setting [1] is: dose: 100.0 mg/kg/injection, schedule: Q04DX003 (ip), vehicle: saline with Tween-80.
Setting [2] is: dose: 400.0 mg/kg/injection, schedule: Q01DX001 (ip), vehicle: saline.
Setting [3] is: dose: 300.0 mg/kg/injection, schedule: Q01DX001 (ip), vehicle: saline.
The mark [4] stands for this setting: dose: 200.0 mg/kg/injection, schedule: Q01DX009 (ip), vehicle: saline with Tween-80.

Molecules are shown by their SMILES. The list shows only some results of the screen, not a fair sample: it gathers tests that were run many times, whatever their T/C, doses with no T/C, and many T/C values between a quarter and a half above the control. Further doses and runs are listed elsewhere. T/C gives the treated animals as a percentage of the vehicle group. Some doses have a count of surviving animals in place of a T/C: the source holds a T/C of zero for them, seemingly a mark for toxic or unscored doses. Some doses without a T/C left all or most animals alive at the check, yet need not have been tolerated: the source hardly ever lists a survival T/C far under the control, and the zero likely stands for such cases as well. Survivors were counted at the toxicity check, usually on the fifth day, unless a day is given; later deaths do not show. Schedule codes are those of the source, taken here to give the interval after Q, in days (D) or hours (H), and the number of doses after X. Some schedules carry Z or #; the key to these is not given. For survival time, this PubChem deposit counts one and a half times the control or more as active, and values a quarter to a half above the control carry no call in these data; other NCI protocols may use other cut-offs. Some doses were run more than once; the results are listed from low to high. Some T/C values carry the count of animals alive at the toxicity check (mostly the fifth day); where none is given, no animal had died by that day.

`COC(=O)C(CCC(=O)C=[N+]=N)NC(=O)C(Cl)Cl` (stereo not given): the T/C under setting [1] is 142 % of control; the T/C (dose: 175.0 mg/kg/injection, schedule: Q01DX001 (ip), vehicle: saline) is 131 % of control [5 of 6 alive]; the T/C (dose: 177.0 mg/kg/injection, schedule: Q01DX001 (ip), vehicle: saline) is 126 % of control; the T/C (dose: 265.0 mg/kg/injection, schedule: Q01DX001 (ip), vehicle: saline) is 131 % of control; the T/C under setting [2] is 148 % of control. In addition, the survivor count is, setting by setting: under setting [2], 3 of 6; (dose: 600.0 mg/kg/injection, schedule: Q01DX001 (ip), vehicle: saline) 5 of 6.

`C[n+]1ccc(/C=C/c2ccc(O)c3ccccc23)cc1`: under setting [3], the survivor count is listed as 0 of 6.

Regarding `CC1=Nc2cc(C)c(C)cc2N=C(C)C1`, the survivor count by setting is: (dose: 400.0 mg/kg/injection, schedule: Q01DX009 (ip), vehicle: Klucel (hydroxypropylcellulose) (HPC)) 0 of 6; (dose: 400.0 mg/kg/injection, schedule: Q04DX003 (ip), vehicle: Klucel (hydroxypropylcellulose) (HPC)) 2 of 6.

`Nc1nc(Cl)c2[nH]cnc2n1`: the T/C was 130 % of control (dose: 1.8 mg/kg/injection, schedule: Q01DX009 (ip), vehicle: saline with Tween-80); 125 % of control (dose: 2.0 mg/kg/injection, schedule: Q01DX009 (ip), vehicle: saline with Tween-80); 138 and 149 % of control (dose: 4.0 mg/kg/injection, schedule: Q01DX009 (ip), vehicle: saline with Tween-80); 129 % of control (dose: 4.4 mg/kg/injection, schedule: Q01DX009 (ip), vehicle: saline with Tween-80); 138 % of control (dose: 6.6 mg/kg/injection, schedule: Q01DX009 (ip), vehicle: saline with Tween-80); 147 % of control (dose: 10.0 mg/kg/injection, schedule: Q01DX009 (ip), vehicle: saline with Tween-80). In addition, the T/C runs as follows: (dose: 13.3 mg/kg/injection, schedule: Q04DX003 (ip), vehicle: saline with Tween-80) 140 % of control; (dose: 15.0 mg/kg/injection, schedule: Q01DX009 (ip), vehicle: saline with Tween-80) 138 % of control; (dose: 20.0 mg/kg/injection, schedule: Q04DX003 (ip), vehicle: saline with Tween-80) 135 % of control; (dose: 26.6 mg/kg/injection, schedule: Q04DX003 (ip), vehicle: saline with Tween-80) 143 % of control; (dose: 40.0 mg/kg/injection, schedule: Q04DX003 (ip), vehicle: saline with Tween-80) 146 % of control; (dose: 50.0 mg/kg/injection, schedule: Q01DX009 (ip), vehicle: saline with Tween-80) 131 % of control. For the same molecule, the T/C was 144 % of control (dose: 60.0 mg/kg/injection, schedule: Q04DX003 (ip), vehicle: saline with Tween-80); 133 % of control (dose: 90.0 mg/kg/injection, schedule: Q04DX003 (ip), vehicle: saline with Tween-80); 127 % of control (dose: 100.0 mg/kg/injection, schedule: Q01DX009 (ip), vehicle: saline with Tween-80); 125 % of control under setting [4]. For the same molecule, the survivor count is 5 of 6 under setting [4] and 6 of 6 (dose: 300.0 mg/kg/injection, schedule: Q04DX009 (ip), vehicle: Klucel (hydroxypropylcellulose) (HPC)).

Turning to `CC(=NC1CCCCC1)Nc1ccc(NC(=O)c2ccc(C(=O)Nc3ccc(NC(C)=NC4CCCCC4)cc3)cc2)cc1`, for the setting “dose: 120.0 mg/kg/injection, schedule: Q01DX Z (ip), vehicle: carboxymethylcellulose (CMC)”, the survivor count is given as 6 of 6.

On to `CN(C)P(=O)(N(C)C)N(C)C.C[CH2][Ge]([CH2]C)[CH2]C.[Li].c1ccc(B(c2ccccc2)c2ccccc2)cc1`, for which the survivor count is, setting by setting: (dose: 100.0 mg/kg/injection, schedule: Q04DX002 (ip), vehicle: saline with Tween-80) 0 of 3; (dose: 200.0 mg/kg/injection, schedule: Q04DX002 (ip), vehicle: saline with Tween-80) 0 of 3; (dose: 400.0 mg/kg/injection, schedule: Q04DX002 (ip), vehicle: saline with Tween-80) 0 of 3.

Take `Fc1ccc([P+]2(c3ccc(F)cc3)C=C(c3ccccc3)[P+](c3ccc(F)cc3)(c3ccc(F)cc3)C=C2c2ccccc2)cc1`: the survivor count (dose: 100.0 mg/kg/injection, schedule: Q01DX001 (ip), vehicle: saline with Tween-80) is 0 of 6; the survivor count (dose: 200.0 mg/kg/injection, schedule: Q01DX001 (ip), vehicle: saline with Tween-80) was 0 of 6; the survivor count (dose: 400.0 mg/kg/injection, schedule: Q01DX001 (ip), vehicle: saline with Tween-80) is 0 of 6.

On to `COc1cc2c3c(c1)/C(=N\Nc1ccccc1)CCN3CCC2`, for which the survivor count is reported as 6 of 6 (dose: 50.0 mg/kg/injection, schedule: Q01DX009 (ip), vehicle: DMSO); 4 of 6 (dose: 100.0 mg/kg/injection, schedule: Q01DX009 (ip), vehicle: DMSO); 6 of 6 (dose: 100.0 mg/kg/injection, schedule: Q04DX003 (ip), vehicle: gum acacia); 1 of 6 (dose: 400.0 mg/kg/injection, schedule: Q04DX003 (ip), vehicle: gum acacia).

Regarding `O=C(NCCc1ccc(S(=O)(=O)Nc2ccc(N=Nc3ccc(N=Nc4ccccc4)cc3)cc2)cc1)C(N1CC1)(N1CC1)N1CC1`, the survivor count reads like this: (dose: 60.0 mg/kg/injection, schedule: Q01DX001 (ip), vehicle: saline) 0 of 6; (dose: 75.0 mg/kg/injection, schedule: Q01DX001 (ip), vehicle: saline) 2 of 6; (dose: 150.0 mg/kg/injection, schedule: Q01DX001 (ip), vehicle: saline) 0 of 6; under setting [3], 0 of 6.

On to `CCCCCCCCCCCCCCSCCO`, for which the survivor count (dose: 400.0 mg/kg/injection, schedule: Q01DX009 (ip), vehicle: carboxymethylcellulose (CMC)) is 1 of 6.

Regarding `CN(C)c1ccc(/C=[N+](\[O-])c2cccc(Cl)c2)cc1`, the survivor count (dose: 400.0 mg/kg/injection, schedule: Q01DX001 (ip), vehicle: Klucel (hydroxypropylcellulose) (HPC)) is reported as 2 of 6.

`O=S(=O)(N1CCCCC1)N1CCNCC1`: the survivor count reads like this: under setting [1], 0 of 6; (dose: 200.0 mg/kg/injection, schedule: Q04DX003 (ip), vehicle: saline with Tween-80) 0 of 6; (dose: 400.0 mg/kg/injection, schedule: Q04DX003 (ip), vehicle: saline with Tween-80) 0 of 6.

On to `CCCC[S][Hg][I]`, for which the survivor count (dose: 12.5 mg/kg/injection, schedule: Q01DX009 (ip), vehicle: Klucel (hydroxypropylcellulose) (HPC)) is 6 of 6; the survivor count (dose: 12.5 mg/kg/injection, schedule: Q04DX002 (ip), vehicle: Klucel (hydroxypropylcellulose) (HPC)) is 0 of 3; the survivor count (dose: 18.0 mg/kg/injection, schedule: Q01DX009 (ip), vehicle: Klucel (hydroxypropylcellulose) (HPC)) is on record as 6 of 6; the survivor count (dose: 25.0 mg/kg/injection, schedule: Q04DX002 (ip), vehicle: Klucel (hydroxypropylcellulose) (HPC)) was 0 of 3; the survivor count (dose: 28.0 mg/kg/injection, schedule: Q01DX009 (ip), vehicle: Klucel (hydroxypropylcellulose) (HPC)) is reported as 3 of 6; the survivor count (dose: 40.0 mg/kg/injection, schedule: Q01DX009 (ip), vehicle: Klucel (hydroxypropylcellulose) (HPC)) was 0 of 6. Moreover, the survivor count runs as follows: (dose: 50.0 mg/kg/injection, schedule: Q04DX002 (ip), vehicle: Klucel (hydroxypropylcellulose) (HPC)) 0 of 3; (dose: 100.0 mg/kg/injection, schedule: Q04DX002 (ip), vehicle: Klucel (hydroxypropylcellulose) (HPC)) 0 of 3; (dose: 200.0 mg/kg/injection, schedule: Q04DX002 (ip), vehicle: Klucel (hydroxypropylcellulose) (HPC)) 0 of 3; (dose: 400.0 mg/kg/injection, schedule: Q04DX002 (ip), vehicle: Klucel (hydroxypropylcellulose) (HPC)) 0 of 3.

For `CCOP(=O)(OCC)C1=C(P(=O)(OCC)OCC)C(F)(F)C1(F)F`, the survivor count was 0 of 6 (dose: 150.0 mg/kg/injection, schedule: Q01DX001 (ip), vehicle: other) and 0 of 6 (dose: 300.0 mg/kg/injection, schedule: Q01DX001 (ip), vehicle: other).
